Laboratory results: PMC10354075
No constants are given. Whether binding was seen depends on the method and setting. Binding seen in cells or lysates may run through a third protein. A yes stands for co-enrichment or nearness to the bait. Other partners may have been found. For some assays here: A no says only that the protein was not detected with the bait.

Amino acid sequences for entries named in this document (tags omitted).
UniProt P06241: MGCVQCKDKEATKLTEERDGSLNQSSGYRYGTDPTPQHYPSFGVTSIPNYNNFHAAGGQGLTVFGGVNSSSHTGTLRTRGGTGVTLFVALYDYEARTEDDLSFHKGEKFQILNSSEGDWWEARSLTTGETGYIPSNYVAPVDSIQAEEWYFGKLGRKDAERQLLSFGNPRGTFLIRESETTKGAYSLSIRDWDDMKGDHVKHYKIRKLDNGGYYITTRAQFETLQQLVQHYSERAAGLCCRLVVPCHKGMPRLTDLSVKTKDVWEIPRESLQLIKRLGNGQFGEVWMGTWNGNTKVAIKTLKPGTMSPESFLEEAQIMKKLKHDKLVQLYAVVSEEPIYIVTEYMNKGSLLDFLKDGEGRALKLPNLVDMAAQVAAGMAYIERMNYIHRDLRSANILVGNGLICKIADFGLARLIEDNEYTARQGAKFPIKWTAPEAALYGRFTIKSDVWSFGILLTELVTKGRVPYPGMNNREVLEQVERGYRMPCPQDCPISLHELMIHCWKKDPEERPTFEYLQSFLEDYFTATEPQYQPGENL
UniProt Q2TAZ0: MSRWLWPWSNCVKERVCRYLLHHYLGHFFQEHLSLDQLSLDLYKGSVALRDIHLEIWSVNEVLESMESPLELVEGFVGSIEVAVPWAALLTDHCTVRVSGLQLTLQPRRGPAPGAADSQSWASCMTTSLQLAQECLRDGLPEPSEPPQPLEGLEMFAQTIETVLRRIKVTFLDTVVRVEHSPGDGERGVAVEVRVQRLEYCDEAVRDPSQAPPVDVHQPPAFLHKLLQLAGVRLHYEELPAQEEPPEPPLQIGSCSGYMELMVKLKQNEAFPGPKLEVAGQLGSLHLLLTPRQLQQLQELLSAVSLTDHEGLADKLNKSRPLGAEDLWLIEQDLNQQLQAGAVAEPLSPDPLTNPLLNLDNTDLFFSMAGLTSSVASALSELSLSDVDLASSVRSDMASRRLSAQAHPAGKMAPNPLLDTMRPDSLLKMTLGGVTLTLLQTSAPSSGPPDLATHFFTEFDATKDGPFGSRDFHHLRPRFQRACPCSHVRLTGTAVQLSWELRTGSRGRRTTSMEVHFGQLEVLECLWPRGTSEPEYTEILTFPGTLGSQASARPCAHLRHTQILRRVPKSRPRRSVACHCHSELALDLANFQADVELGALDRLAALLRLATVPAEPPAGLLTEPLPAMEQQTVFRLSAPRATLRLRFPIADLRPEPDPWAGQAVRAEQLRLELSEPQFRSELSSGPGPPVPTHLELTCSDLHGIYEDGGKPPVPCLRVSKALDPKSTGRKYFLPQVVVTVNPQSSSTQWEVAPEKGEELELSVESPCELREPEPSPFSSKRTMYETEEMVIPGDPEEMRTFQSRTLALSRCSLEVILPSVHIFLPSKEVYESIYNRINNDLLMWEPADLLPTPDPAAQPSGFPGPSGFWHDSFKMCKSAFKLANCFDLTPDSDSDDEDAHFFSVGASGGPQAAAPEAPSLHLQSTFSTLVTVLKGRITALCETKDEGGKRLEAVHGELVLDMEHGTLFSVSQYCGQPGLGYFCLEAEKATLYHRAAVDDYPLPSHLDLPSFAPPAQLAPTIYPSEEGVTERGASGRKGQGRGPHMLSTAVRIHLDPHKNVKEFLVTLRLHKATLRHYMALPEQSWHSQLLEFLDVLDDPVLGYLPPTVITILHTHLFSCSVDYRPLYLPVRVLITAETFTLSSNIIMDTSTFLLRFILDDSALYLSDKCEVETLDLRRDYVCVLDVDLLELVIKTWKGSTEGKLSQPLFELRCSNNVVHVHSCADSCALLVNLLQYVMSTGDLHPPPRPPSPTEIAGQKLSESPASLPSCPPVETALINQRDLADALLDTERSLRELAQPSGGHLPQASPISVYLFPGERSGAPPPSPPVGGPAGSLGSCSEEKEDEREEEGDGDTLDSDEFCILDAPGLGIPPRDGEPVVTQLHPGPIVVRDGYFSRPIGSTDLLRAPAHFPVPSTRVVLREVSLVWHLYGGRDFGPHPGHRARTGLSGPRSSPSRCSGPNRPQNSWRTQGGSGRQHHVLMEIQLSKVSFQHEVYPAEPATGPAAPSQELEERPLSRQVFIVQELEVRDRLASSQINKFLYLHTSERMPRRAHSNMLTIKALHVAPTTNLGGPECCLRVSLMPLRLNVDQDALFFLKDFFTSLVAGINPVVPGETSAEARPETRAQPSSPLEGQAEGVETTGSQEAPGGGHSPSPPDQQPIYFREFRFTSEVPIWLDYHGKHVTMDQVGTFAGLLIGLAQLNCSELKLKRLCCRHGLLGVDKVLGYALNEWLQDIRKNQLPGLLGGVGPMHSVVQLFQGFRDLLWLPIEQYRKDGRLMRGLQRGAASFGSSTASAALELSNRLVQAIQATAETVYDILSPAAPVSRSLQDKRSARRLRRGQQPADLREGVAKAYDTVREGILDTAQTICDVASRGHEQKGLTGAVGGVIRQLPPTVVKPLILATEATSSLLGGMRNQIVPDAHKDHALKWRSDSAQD
UniProt Q14160: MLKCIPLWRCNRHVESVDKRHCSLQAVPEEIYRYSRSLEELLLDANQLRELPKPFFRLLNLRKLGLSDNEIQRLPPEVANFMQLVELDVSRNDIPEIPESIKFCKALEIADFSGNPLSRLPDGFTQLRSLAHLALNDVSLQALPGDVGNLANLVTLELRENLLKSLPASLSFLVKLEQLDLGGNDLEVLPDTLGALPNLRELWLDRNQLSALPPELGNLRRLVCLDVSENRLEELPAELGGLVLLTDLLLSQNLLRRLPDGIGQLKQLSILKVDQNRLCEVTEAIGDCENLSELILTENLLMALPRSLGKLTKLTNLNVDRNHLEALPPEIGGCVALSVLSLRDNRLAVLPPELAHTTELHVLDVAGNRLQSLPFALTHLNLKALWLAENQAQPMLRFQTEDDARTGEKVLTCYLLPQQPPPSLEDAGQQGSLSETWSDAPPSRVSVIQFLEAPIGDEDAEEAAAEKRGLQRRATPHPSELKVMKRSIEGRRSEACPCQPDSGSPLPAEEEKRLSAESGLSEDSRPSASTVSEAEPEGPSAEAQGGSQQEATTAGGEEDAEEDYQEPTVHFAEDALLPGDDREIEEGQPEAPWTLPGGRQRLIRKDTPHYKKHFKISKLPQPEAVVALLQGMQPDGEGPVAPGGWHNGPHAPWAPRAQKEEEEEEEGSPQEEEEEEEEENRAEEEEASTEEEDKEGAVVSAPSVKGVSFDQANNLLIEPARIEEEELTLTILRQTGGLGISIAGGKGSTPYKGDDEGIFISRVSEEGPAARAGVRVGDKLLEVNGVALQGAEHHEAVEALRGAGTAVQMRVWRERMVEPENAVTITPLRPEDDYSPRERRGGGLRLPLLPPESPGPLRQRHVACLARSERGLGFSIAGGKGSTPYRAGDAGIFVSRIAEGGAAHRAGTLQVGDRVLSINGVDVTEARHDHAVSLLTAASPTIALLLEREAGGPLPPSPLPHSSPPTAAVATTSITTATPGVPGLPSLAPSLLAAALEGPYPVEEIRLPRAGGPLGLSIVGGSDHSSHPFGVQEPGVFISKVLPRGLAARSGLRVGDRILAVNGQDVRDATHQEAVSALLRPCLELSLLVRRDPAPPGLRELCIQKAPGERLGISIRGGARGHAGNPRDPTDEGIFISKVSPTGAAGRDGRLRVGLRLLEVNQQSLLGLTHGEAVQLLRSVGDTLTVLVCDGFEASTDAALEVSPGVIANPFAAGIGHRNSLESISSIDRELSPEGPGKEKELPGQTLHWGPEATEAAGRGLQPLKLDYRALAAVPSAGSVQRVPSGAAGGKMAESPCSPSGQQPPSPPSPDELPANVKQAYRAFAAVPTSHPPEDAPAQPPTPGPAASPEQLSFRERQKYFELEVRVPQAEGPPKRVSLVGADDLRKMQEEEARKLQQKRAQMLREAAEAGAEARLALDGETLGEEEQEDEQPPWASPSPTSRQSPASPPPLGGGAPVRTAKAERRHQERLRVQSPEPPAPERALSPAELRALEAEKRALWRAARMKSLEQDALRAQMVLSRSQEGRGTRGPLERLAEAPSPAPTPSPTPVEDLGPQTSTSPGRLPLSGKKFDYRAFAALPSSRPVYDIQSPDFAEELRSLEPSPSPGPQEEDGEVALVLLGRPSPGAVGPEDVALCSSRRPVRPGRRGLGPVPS
UniProt P08631: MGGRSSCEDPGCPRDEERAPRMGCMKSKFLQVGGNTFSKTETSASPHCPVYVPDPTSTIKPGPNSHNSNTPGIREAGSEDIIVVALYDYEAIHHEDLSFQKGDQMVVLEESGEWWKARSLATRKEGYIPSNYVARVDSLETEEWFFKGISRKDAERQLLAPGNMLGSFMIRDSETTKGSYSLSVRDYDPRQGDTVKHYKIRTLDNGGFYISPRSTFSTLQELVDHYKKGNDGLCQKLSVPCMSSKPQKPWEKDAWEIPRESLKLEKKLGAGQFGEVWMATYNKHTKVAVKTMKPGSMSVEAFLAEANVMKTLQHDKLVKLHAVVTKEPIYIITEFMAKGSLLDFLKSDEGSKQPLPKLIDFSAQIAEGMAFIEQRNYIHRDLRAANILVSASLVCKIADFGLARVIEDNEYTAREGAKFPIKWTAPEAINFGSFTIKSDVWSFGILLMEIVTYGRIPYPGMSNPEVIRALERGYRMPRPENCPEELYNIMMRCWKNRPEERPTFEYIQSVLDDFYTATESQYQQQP
UniProt Q9HAV0: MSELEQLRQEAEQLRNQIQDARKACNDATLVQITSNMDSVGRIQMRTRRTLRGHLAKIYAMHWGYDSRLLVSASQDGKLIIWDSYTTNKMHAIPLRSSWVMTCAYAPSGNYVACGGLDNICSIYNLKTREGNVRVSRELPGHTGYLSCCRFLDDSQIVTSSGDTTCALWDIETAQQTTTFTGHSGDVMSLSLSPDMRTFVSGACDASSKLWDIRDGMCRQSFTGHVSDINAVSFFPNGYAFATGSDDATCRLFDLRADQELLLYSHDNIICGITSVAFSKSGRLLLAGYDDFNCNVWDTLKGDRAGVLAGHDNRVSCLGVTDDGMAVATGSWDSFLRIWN
UniProt O00401: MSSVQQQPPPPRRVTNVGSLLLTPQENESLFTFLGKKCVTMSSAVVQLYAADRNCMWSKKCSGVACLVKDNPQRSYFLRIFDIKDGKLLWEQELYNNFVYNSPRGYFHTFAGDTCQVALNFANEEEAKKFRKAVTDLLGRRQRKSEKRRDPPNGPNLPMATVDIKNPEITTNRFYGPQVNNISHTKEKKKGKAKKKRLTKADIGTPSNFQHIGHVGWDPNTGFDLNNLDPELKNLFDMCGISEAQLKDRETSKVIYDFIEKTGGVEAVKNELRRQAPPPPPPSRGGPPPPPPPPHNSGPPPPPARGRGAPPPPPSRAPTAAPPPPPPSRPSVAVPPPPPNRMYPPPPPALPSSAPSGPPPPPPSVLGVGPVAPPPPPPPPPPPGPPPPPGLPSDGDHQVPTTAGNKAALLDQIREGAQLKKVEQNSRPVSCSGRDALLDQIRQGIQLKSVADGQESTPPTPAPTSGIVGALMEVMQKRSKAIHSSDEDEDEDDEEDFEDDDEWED

B1: Hsp90 co-chaperone Cdc37 (CDC37) (protein, UniProt Q16543 1-378)
chain: MVDYSVWDHIEVSDDEDETHPNIDTASLFRWRHQARVERMEQFQKEKEELDRGCRECKRKVAECQRKLKELEVAEGGKAELERLQAEAQQLRKEERSWEQKLEEMRKKEKSMPWNVDTLSKDGFSKSMVNTKPEKTEEDSEEVREQKHKTFVEKYEKQIKHFGMLRRWDDSQKYLSDNVHLVCEETANYLVIWCIDLEVEEKCALMEQVAHQTIVMQFILELAKSLKVDPRACFRQFFTKIKTADRQYMEGFNDELEAFKERVRGRAKLRIEKAMKEYEEEERKKRLGPGGLDPVEVYESLPEELQKCFDVKDVQMLQDAISKMDPTDAKYHMQRCIDSGLWVPNSKASEAKEGEEAGPGDPLLEAVPKTGDEKDVSV
B2: Ras-related protein Rab-3D (RAB3D) (protein, UniProt O95716 1-219)
chain: MASAGDTQAGPRDAADQNFDYMFKLLLIGNSSVGKTSFLFRYADDSFTPAFVSTVGIDFKVKTVYRHDKRIKLQIWDTAGQERYRTITTAYYRGAMGFLLMYDIANQESFAAVQDWATQIKTYSWDNAQVILVGNKCDLEDERVVPAEDGRRLADDLGFEFFEASAKENINVKQVFERLVDVICEKMNESLEPSSSSGSNGKGPAVGDAPAPQPSSCSC

These molecules were tested against FYN-V5 (V5-tagged, overexpressed) (UniProt P06241) (assay: affinity purification with mass spectrometry; HCK-V5, FYN-V5 or SRC-V5 overexpressed in HEK293; lysates 48 h after transfection immunoprecipitated with anti-V5-tag magnetic beads, run on PAGE gels, lanes sent for mass spectrometry; ranked by ratio of overexpression to control lane).
For “Autophagy-related protein 2 homolog A (ATG2A) (from UniProt Q2TAZ0 1-1938)”, the binding was “no binding”. For “Heat shock protein HSP 90-alpha (HSP90AA1) (from UniProt P07900 1-732)”, the binding was “binds”. With “Protein scribble homolog (SCRIB) (from UniProt Q14160 1-1655)” the binding was “binds”. For B1, the binding was “binds”.

Each molecule was assayed against HCK-V5 (hematopoietic cell kinase, V5-tagged, overexpressed) (UniProt P08631) in the same assay as above.
In the case of “Autophagy-related protein 2 homolog A (ATG2A) (from UniProt Q2TAZ0 1-1938)”, the binding is reported as “binds”. In the case of “Guanine nucleotide-binding protein b4 (GNB4) (from UniProt Q9HAV0 1-340)”, the binding is reported as “binds”. For “Neural Wiskott-Aldrich syndrome protein (WASL) (from UniProt O00401 1-505)”, the binding was “binds”. With B2 the binding was “binds”.
